Assay results published in PMC10238197, “Deafness‐Associated ADGRV1 Mutation Impairs USH2A Stability through Improper Phosphorylation of WHRN and WDSUB1 Recruitment” (Advanced Science, 2023).
Numbering of substitutions follows the chain as printed. Results are given in words; binding and its absence hold for the method and conditions named. In cells and extracts the contact can be indirect. Some entries that bind do so weakly or less than the wild type. Tags and fused reporters may be left off the sequences shown.

How the values were obtained:
Assay in all cases: FRET or BRET; intermolecular FlAsH-BRET saturation in HEK293 cells: fixed amount of WHRN-Nluc, increasing ADGRV1-FlAsH or USH2A-FlAsH; 2.5 µM FlAsH-EDT2, 5 µM coelenterazine-h; net BRET Em530/Em485
[1] = target: T1, WHRN-Nluc Z1-L (mouse) (UniProt Q80VW5)
T1 sequence: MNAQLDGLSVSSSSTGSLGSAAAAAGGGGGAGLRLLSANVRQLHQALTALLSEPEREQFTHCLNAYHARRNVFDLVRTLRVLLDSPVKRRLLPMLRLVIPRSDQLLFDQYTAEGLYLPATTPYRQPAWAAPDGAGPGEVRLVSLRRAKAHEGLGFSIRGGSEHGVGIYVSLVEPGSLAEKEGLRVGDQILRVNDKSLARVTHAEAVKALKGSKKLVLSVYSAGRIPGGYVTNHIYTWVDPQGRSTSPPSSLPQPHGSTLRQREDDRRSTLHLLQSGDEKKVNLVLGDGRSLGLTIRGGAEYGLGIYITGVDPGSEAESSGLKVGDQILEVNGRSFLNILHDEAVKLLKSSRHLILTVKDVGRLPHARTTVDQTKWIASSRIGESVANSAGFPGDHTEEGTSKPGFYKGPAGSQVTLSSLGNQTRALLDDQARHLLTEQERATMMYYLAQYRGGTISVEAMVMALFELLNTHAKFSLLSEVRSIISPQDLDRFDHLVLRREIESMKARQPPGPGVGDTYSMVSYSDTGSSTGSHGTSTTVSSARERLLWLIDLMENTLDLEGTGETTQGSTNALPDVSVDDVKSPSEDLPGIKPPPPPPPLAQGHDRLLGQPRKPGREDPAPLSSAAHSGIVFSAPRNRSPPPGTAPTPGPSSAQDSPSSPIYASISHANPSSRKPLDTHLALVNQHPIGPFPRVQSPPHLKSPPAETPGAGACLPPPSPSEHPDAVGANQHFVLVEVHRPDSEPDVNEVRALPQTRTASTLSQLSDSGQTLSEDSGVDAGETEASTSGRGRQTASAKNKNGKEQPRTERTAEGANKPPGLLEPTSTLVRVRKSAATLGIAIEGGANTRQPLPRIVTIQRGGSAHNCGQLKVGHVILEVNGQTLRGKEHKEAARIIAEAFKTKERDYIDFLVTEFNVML

[2] = target: T2, WHRN-Nluc (Z1-L) L171A (mouse) (UniProt Q80VW5)
T2 sequence: T1 sequence with L171A

[3] = target: T3, WHRN-Nluc (Z1-L) K210A (mouse) (UniProt Q80VW5)
T3 sequence: T1 sequence with K210A

Measured: binding

B1: USH2A-FlAsH (domain or fragment, UniProt Q2QI47 4819-5193)
chain: PPSGLSPPQVQTLGSRMASVHWTPPLLPNGVIHSYELQLQRACPPDSAPRCPPSHTERKYWGPGHRASLAGLQPNTAYGVQVVAYNEAGSTASGWTNFSTKKEMPQYQALFSVDSNASMVWVDWSGTFLLNGHLKEYVVTDGGRRVYSGLDTTLYIPRMVDKIFFFQVTCTTDIGSVKTPLVQYDAATGSGLVLTTPGEKKGAGTKSTEFYSELWFIMVMAVVGLILLAIFLSLILQRKIHKEPCIRERPPLVPLQKRMTPLSVYPPGETHVGLADTRLPRSGTPMSIRSSQSVSVLRIPSQSQLSHAYSQSSLHRSVSQLMDMADKKVVTEDSLWETIMGHSSGLYVDEEELMNAIKGFSSVTKEHTAFTDTHL
modifications: FlAsH-EDT2 label on the CCPGCC motif
binds: all assays above
